Assay results: publication PMC6306559, “Diazepam is not a direct allosteric modulator of α1‐adrenoceptors, but modulates receptor signaling by inhibiting phosphodiesterase‐4” (Pharmacology Research & Perspectives, 2018)

System: α1A‐AR A4
Details: 500 μmol/L ligand, 5 μmol/L receptor in DDM, with and without 10 μmol/L prazosin; controls DDM alone and enNTS1

CN1C(=O)CN=C(c2ccccc2)c2cc(Cl)ccc21 [diazepam]
STD NMR signals, interpretation: nonspecific interactions with detergent micelles
